PubChem BioAssay AID1508588, Peter MacCallum Cancer Centre | 2020

- Test: 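Which gene losses make BRAF-mutant melanoma cells more responsive to vemurafenib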 (primary screen)
- System: human WM266.4 melanoma cells (BRAF V600 mutant)
- Reagents: siRNA pool against human genes, 40 nM
- Duration: 96 h from transfection to read-out
- Challenge: vemurafenib 300 nM (about IC25), added 48 h after transfection, for 48 h; comparison arm got DMSO vehicle only
- Measured: 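Ratios to non-targeting siRNA for cell gain, counted as DAPI nuclei after minus before drug and averaged over two replicates, and for absorbance-read medium lactate per cell; both binned into fold-change classes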
- Scale: cell gain with vemurafenib: higher = more cell gain than with non-targeting siRNA; lactate per cell with vemurafenib: higher = more lactate made per cell
- Hit rule: 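a knock-down counts as enhancing when its fold-change classes with vehicle and with vemurafenib, taken together, show a stronger drug effect on cell gain or lactate per cell; exact class pairs not stated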
- Meaning of the calls: active = enhances vemurafenib effect; inactive = no enhancement seen
This is a random part of about 18,000 reagents tested. In the full data, 790 (4.4%) were called active. 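Calls rest on a combination of fold-change classes in drug and vehicle arms, not all shown here.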 Unmarked entries are inactive. No sequences are given here.

FXYD6 scored cell gain with vemurafenib 0.59; lactate per cell with vemurafenib 0.79. After knock-down of CEPT1, the record shows cell gain with vemurafenib 0.18; lactate per cell with vemurafenib 0.6. With knock-down of IFI35, the screen gave cell gain with vemurafenib 0.87; lactate per cell with vemurafenib 1.68. Depletion of DCN gave: cell gain with vemurafenib 0.88; lactate per cell with vemurafenib 0.84. With knock-down of MRPL19, the record shows cell gain with vemurafenib 0.94; lactate per cell with vemurafenib 0.7. Silencing of ZNF700 gave: cell gain with vemurafenib 0.77; lactate per cell with vemurafenib 1.29.

After knock-down of PCMT1, the screen gave cell gain with vemurafenib 1.06; lactate per cell with vemurafenib 0.51. For FABP9 the deposit lists cell gain with vemurafenib 0.05; lactate per cell with vemurafenib 1.52. TRIM49 showed cell gain with vemurafenib 1.06; lactate per cell with vemurafenib 0.89. For PDE7A the deposit lists cell gain with vemurafenib 0.2; lactate per cell with vemurafenib 1.36. With knock-down of SMNDC1, the screen gave cell gain with vemurafenib 0.31; lactate per cell with vemurafenib 1.7. For DMGDH the deposit lists cell gain with vemurafenib 0.69; lactate per cell with vemurafenib 0.68.

FBLN7 scored cell gain with vemurafenib 0.5; lactate per cell with vemurafenib 1.17. GDPD1 scored cell gain with vemurafenib 0.9; lactate per cell with vemurafenib 0.72. For PDE2A, the values are cell gain with vemurafenib 0.68; lactate per cell with vemurafenib 0.75. Silencing of IL9 came out at: cell gain with vemurafenib 0.26; lactate per cell with vemurafenib 2.29. Against IL10RB, the entry reads cell gain with vemurafenib 0.87; lactate per cell with vemurafenib 0.76. For CLDN6, the entry reads cell gain with vemurafenib 0.46; lactate per cell with vemurafenib 1.84.

Silencing of TRIM3 came out at: cell gain with vemurafenib 1.12; lactate per cell with vemurafenib 0.82. After knock-down of MAGEA6 the results were cell gain with vemurafenib 0.98; lactate per cell with vemurafenib 0.92. After knock-down of MIER3 the results were cell gain with vemurafenib 0.16 (active); lactate per cell with vemurafenib 0.38. Silencing of UNG resulted in: cell gain with vemurafenib 0.44; lactate per cell with vemurafenib 0.86. With knock-down of TBX21, the screen gave cell gain with vemurafenib 0.29; lactate per cell with vemurafenib 1.56. Depletion of RBBP4 came out at: cell gain with vemurafenib 0.72; lactate per cell with vemurafenib 0.34.

Against RPS25, the values are cell gain with vemurafenib -0.08; lactate per cell with vemurafenib 1.21. After knock-down of PFN3, the screen gave cell gain with vemurafenib 0.4; lactate per cell with vemurafenib 1.43. Against COX7A2 the deposit lists cell gain with vemurafenib 0.5; lactate per cell with vemurafenib 0.84. For HLA-B, the entry reads cell gain with vemurafenib 0.57; lactate per cell with vemurafenib 0.58. Knock-down of TMEM230 gave: cell gain with vemurafenib -0.12; lactate per cell with vemurafenib 1.29. Depletion of RNFT2 gave: cell gain with vemurafenib 0.02; lactate per cell with vemurafenib 1.06.

With knock-down of CRY2 the results were cell gain with vemurafenib 0.75; lactate per cell with vemurafenib 0.84. With knock-down of PADI6, the record shows cell gain with vemurafenib 0.38; lactate per cell with vemurafenib 1.36. Depletion of CILK1 came out at: cell gain with vemurafenib 0.92; lactate per cell with vemurafenib 0.34. With knock-down of ASGR1, the screen gave cell gain with vemurafenib 0.79; lactate per cell with vemurafenib 0.77. Knock-down of PJA2 resulted in: cell gain with vemurafenib 0.93; lactate per cell with vemurafenib 0.62. Against DPYSL5, the entry reads cell gain with vemurafenib 0.78; lactate per cell with vemurafenib 0.89.

After knock-down of NEK3, the screen gave cell gain with vemurafenib 0.09; lactate per cell with vemurafenib 0.97. After knock-down of CRISPLD1, the record shows cell gain with vemurafenib 1.13; lactate per cell with vemurafenib 1.1. Depletion of MYL1 resulted in: cell gain with vemurafenib 0.25; lactate per cell with vemurafenib 1.45. SLC17A1 gave cell gain with vemurafenib 0.01; lactate per cell with vemurafenib 1.5.

Not a retest: entries from further up.
RNFT2 — cell gain with vemurafenib = 0.02; lactate per cell with vemurafenib = 1.06
CRY2 — cell gain with vemurafenib = 0.75; lactate per cell with vemurafenib = 0.84
PADI6 — cell gain with vemurafenib = 0.38; lactate per cell with vemurafenib = 1.36
CILK1 — cell gain with vemurafenib = 0.92; lactate per cell with vemurafenib = 0.34
